Consider 1 substance from paper PMC7425433.

The experiment concerns the target T1, 17β-Hydroxysteroid dehydrogenase type 4 (HSD17B4), endogenous (human (endogenous in LNCaP)) (UniProt P51659).
T1 sequence: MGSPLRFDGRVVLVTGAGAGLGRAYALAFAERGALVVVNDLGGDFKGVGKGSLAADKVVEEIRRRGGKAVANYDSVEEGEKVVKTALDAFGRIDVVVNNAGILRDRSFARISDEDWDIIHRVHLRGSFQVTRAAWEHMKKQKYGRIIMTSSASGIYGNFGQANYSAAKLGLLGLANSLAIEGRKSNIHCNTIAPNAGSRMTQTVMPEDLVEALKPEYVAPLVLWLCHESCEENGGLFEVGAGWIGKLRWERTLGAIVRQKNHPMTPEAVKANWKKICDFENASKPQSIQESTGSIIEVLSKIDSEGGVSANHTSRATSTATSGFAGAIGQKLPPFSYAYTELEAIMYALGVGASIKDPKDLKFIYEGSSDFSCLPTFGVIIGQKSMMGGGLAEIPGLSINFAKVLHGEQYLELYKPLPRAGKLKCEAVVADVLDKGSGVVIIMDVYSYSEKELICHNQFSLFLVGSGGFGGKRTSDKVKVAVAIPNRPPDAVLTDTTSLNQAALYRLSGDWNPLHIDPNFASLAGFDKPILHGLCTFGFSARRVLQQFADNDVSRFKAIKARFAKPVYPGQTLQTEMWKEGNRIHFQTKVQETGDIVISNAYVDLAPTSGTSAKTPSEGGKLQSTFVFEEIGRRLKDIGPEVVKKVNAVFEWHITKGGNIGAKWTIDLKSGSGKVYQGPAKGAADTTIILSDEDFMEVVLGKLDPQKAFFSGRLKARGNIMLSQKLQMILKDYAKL
Nature of the experiment: co-IP; endogenous proteins from LNCaP lysate, detected by western blotting; cells cultured with or without DHT for 24 h (Figures 5C, 6F) or untreated (Figure 7D); lysis in 0.3% Nonidet P40, 150 mM NaCl, 50 mM Tris-HCl pH 7.5; which protein was precipitated is not told.

Results are given in words; binding and its absence hold for the method and conditions named. Binding seen in cells or lysates may run through a third protein. A result given as binding can be weak or reduced; the word gives no strength.

Turning to “SIRT3, endogenous (human (endogenous in LNCaP)) (enzyme)”, the binding result is “binds”.
